Among the data in PMC5996148 are binding signal values, retold here.

Some of the results follow.

Test systems include HTR5A (human); HVCN1 (human); HYAL1 (human); HYPK (human); Hexokinase-3 (human).
Holding throughout (assay): protein microarray (ProtoArray v5.0), streptavidin-Alexa Fluor 647
Holding throughout (conditions): 3'-biotin; 20 mM Tris (pH 7.5), 5 mM MgCl2, 100 mM KCl, 0.1% Tween-20, A/T-rich and random oligonucleotide blockers; temperature not stated; high values mean tight binding

For test [1], the system named is Heat shock protein HSP 90-alpha (human).
Test [2] relates to Hematopoietic cell signal transducer (human).
Test [3] has as its system Hemoglobin subunit mu (human).
Test [4] deals with Hexaprenyldihydroxybenzoate methyltransferase, mitochondrial (human).
In test [5] the test system is High affinity cAMP-specific and IBMX-insensitive 3prime,5prime-cyclic phosphodiesterase 8A (human).
Test [6] has as its system Histidine ammonia-lyase (human).
For test [7], the system named is Histone chaperone ASF1B (human).
In test [8] the test system is Histone deacetylase 10 (human).
The test system of test [9] is Histone deacetylase 6 (human).
In test [10] the test system is Homeobox protein Hox-A9 (human).
Test [11] concerns Homeobox protein Hox-B6 (human).
In test [12] the test system is Homeobox protein Meis1 (human).
The test system of test [13] is Homeobox protein PKNOX2 (human).
For test [14], the system named is Hsp90 co-chaperone Cdc37-like 1 (human).
The test system of test [15] is Huntingtin-interacting protein 1-related protein (human).

Regarding “GGGAGGCTGAGGCAGG [G4-1 biotinylated (PQS2)]”, the binding signal with HTR5A (human) is -0.321 z-score; in the test with HVCN1 (human) it was -0.328 z-score; in the test on HYAL1 (human), -0.324 z-score; with HYPK (human), -0.349 z-score; in test [1], -0.292 z-score; in test [2], -0.333 z-score. Further, the binding signal in [3] is -0.372 z-score; in test [4] it was -0.373 z-score; in the test on Hexokinase-3 (human) it was -0.352 z-score; in test [5] it was -0.315 z-score; in test [6], -0.305 z-score; in [7] it was -0.317 z-score. For the same sequence, the binding signal is -0.346 z-score in test [8]; -0.351 z-score in test [9]; -0.31 z-score in test [10]; -0.338 z-score in test [11]; -0.345 z-score in test [12]; -0.319 z-score in [13]. Further, the binding signal in test [14] was -0.358 z-score; in test [15], -0.339 z-score.
